From the supplement of paper PMC12823440, “Inhibitors supercharge kinase turnover through native proteolytic circuits” (Nature, 2025)
Structures can show the parent of a compound that is named as a salt. The list shows a part of the results. The calls rarely recur for the same compound in another form.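 Kinases, fused to nanoluciferase, were expressed in K562 cells; luminescence was measured every 4 h from 2 to 18 h as percent of control (DMSO = 100%, positive control = 0%). A time point is decreased if signal falls significantly (2 sigma). Hits were called by the authors by a rule that is not shown; the count of time points alone does not decide it.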

By UniProt entry, the sequences of proteins in these tests, tags left out. Where a name states a change or a piece, a line headed by the entry shows the natural chain unless it says otherwise.
UniProt P50613: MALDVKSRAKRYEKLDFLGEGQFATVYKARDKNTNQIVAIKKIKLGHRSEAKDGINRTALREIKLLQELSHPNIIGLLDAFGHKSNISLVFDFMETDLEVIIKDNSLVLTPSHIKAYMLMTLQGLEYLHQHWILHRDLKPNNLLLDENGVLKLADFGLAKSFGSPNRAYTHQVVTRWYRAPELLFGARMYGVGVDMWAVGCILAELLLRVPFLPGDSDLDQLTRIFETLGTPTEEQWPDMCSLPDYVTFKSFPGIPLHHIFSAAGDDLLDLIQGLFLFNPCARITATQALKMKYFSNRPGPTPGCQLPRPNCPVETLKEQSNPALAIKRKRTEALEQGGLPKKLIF
UniProt P50750, whole entry: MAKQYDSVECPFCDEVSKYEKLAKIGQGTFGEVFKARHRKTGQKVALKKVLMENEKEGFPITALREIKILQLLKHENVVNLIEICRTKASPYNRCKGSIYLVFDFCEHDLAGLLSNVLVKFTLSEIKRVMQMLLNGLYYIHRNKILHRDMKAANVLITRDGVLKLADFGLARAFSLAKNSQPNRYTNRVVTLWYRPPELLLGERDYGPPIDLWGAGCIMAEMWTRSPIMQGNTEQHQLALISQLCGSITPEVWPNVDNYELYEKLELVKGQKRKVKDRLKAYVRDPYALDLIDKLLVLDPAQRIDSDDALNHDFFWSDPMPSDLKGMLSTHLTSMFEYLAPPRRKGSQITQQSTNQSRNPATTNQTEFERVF
UniProt O96017, whole entry: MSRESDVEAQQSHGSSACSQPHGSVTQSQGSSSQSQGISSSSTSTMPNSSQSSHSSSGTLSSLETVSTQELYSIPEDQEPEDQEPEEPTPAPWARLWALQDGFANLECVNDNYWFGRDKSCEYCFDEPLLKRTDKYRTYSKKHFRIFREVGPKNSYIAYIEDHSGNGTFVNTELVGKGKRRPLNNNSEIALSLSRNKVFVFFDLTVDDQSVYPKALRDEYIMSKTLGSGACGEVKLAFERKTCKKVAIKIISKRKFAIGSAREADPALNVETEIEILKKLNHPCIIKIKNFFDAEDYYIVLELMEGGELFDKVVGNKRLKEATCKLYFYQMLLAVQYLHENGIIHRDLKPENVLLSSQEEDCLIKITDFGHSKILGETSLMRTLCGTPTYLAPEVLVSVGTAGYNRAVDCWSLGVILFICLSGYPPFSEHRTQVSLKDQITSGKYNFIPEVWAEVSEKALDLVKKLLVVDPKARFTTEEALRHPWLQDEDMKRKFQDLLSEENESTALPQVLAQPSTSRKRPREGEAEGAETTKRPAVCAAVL
UniProt P41240: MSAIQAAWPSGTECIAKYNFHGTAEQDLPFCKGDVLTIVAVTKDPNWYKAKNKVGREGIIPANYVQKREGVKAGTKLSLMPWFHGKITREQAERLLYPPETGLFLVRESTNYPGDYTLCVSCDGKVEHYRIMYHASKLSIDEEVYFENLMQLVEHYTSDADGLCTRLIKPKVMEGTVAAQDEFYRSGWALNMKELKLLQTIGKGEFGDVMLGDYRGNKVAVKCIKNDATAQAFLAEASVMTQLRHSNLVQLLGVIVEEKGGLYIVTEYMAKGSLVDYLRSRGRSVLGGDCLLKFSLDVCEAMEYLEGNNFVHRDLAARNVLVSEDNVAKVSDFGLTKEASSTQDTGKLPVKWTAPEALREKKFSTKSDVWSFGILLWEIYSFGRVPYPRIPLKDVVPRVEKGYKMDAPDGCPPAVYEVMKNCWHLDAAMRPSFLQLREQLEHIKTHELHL
UniProt P48730: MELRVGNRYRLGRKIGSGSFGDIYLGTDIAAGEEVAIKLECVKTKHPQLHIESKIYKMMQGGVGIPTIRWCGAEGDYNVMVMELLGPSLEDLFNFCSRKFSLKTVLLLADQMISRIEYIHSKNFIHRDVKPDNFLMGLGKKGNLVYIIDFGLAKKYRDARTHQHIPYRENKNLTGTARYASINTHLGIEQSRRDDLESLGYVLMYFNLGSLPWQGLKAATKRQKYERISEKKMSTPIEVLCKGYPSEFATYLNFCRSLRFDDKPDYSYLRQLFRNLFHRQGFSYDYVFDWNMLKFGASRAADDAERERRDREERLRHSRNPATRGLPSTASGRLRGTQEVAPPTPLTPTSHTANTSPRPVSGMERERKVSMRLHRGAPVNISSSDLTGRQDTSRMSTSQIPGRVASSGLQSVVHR
UniProt Q08345: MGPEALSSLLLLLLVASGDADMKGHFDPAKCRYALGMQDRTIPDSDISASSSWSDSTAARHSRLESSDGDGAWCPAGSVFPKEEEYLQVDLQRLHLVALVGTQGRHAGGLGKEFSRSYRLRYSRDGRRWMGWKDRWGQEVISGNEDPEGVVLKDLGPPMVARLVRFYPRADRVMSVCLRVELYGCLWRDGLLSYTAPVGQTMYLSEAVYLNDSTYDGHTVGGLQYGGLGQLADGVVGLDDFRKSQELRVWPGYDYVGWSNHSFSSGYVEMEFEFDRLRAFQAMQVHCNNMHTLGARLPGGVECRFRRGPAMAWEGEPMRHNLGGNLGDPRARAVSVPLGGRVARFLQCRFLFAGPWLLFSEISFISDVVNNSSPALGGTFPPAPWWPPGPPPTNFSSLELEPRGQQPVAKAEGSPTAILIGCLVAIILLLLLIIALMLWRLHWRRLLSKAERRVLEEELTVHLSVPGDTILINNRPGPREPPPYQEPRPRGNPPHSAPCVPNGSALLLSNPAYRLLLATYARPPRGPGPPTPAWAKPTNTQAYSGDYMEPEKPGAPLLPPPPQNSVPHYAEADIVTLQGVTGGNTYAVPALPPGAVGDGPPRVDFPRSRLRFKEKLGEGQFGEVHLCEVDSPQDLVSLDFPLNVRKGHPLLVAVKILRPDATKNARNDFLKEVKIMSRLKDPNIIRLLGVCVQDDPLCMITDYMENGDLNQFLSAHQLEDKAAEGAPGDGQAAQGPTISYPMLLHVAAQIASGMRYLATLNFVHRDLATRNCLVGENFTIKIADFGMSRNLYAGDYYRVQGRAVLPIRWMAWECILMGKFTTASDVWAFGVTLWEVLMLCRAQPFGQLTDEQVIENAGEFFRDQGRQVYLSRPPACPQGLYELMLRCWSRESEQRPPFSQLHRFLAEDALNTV
UniProt Q9Y463, whole entry, looked up: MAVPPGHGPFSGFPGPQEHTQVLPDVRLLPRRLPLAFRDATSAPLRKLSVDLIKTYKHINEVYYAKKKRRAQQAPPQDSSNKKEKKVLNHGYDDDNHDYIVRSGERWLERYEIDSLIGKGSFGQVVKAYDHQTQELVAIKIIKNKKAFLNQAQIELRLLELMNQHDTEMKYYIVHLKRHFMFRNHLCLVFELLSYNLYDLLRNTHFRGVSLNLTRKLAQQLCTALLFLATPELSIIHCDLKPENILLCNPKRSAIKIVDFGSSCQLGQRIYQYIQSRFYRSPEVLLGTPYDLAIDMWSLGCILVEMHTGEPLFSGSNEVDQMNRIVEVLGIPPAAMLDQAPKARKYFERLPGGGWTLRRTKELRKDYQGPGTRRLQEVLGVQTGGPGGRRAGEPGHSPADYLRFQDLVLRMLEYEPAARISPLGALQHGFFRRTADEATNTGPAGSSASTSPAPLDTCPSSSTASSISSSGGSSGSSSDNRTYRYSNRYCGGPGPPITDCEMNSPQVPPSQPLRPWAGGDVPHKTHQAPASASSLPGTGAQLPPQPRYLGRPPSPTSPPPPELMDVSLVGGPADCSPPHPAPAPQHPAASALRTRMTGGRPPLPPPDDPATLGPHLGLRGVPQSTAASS
UniProt P21860, whole entry: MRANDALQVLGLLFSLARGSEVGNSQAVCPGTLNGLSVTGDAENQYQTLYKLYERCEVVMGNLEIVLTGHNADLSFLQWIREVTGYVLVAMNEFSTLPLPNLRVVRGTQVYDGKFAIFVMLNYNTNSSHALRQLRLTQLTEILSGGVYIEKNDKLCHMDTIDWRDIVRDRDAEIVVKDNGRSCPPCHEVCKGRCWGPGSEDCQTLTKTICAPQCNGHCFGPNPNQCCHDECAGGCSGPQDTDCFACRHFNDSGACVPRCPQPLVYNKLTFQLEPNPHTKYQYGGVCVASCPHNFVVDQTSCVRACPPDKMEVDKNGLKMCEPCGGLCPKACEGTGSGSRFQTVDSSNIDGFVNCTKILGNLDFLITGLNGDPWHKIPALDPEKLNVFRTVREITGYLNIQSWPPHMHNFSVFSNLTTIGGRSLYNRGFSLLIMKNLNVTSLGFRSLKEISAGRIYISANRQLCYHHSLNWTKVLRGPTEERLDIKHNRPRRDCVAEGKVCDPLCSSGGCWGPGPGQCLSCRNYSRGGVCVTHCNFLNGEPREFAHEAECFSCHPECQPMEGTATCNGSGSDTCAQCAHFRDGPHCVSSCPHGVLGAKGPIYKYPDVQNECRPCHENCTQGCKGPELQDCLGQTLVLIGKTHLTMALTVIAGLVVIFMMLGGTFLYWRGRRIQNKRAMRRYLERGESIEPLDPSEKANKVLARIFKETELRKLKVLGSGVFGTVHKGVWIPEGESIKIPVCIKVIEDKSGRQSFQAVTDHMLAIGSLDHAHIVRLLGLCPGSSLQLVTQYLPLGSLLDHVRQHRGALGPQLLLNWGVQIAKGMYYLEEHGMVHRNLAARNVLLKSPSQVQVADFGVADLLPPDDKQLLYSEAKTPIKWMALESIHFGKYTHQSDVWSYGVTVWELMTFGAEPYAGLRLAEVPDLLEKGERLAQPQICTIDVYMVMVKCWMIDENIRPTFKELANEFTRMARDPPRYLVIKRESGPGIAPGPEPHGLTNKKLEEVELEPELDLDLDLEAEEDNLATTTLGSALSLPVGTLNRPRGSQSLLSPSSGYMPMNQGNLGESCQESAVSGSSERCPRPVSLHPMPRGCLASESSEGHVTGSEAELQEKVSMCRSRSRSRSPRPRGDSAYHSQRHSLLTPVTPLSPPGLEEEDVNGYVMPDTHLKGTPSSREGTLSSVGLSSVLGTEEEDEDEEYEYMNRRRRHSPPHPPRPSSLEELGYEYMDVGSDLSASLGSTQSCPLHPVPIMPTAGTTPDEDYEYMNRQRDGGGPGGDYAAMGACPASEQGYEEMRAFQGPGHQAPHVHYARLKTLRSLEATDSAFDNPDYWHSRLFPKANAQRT
UniProt Q15303, whole entry R711C: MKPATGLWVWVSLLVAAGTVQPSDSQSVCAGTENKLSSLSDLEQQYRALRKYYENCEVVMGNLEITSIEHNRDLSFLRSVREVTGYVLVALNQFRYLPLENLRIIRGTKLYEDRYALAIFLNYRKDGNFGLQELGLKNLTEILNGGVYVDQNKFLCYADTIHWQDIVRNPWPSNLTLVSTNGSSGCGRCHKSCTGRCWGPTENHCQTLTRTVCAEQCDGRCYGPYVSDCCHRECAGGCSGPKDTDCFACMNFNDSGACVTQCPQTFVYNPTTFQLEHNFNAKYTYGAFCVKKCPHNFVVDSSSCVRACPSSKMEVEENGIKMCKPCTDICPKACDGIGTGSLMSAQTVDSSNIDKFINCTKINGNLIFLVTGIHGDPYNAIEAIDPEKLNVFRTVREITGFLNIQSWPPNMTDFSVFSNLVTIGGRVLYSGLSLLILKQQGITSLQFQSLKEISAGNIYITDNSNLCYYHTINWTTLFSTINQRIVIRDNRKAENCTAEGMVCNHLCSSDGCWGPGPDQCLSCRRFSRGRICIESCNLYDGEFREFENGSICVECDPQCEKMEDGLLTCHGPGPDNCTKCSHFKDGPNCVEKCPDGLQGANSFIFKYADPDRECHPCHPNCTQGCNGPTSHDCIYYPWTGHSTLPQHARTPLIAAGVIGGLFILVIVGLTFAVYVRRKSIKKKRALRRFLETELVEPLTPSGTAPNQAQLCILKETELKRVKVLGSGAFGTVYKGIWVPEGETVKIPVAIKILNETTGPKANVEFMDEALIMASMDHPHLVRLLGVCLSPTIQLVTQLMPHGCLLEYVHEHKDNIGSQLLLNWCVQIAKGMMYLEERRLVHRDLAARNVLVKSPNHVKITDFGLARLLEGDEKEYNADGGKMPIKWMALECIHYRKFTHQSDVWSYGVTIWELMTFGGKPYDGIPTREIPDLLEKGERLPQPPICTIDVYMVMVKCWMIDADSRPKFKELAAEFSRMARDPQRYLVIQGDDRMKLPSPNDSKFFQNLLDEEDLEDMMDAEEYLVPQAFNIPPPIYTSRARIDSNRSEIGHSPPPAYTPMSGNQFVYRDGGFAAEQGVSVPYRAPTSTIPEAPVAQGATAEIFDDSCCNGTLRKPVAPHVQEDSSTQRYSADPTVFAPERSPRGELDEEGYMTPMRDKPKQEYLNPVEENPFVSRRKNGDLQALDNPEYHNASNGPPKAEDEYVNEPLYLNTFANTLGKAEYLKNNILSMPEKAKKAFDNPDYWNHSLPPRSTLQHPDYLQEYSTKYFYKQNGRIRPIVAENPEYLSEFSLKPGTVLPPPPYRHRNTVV

Key:
Assay in all cases: kinase-Nluc reporter destabilization hit call (1 = scored as downregulated) (binary); higher = compound decreases kinase abundance
Conditions in all cases: K562; 2-18 h
CDK7 = CDK7 (UniProt P50613)
CDK9 = CDK9 (UniProt P50750)
CHEK2 = CHEK2 (UniProt O96017)
CSF1R = CSF1R (UniProt P07333)
CSK = CSK (UniProt P41240)
CSNK1A1 = CSNK1A1 (UniProt P48729)
CSNK1D = CSNK1D (UniProt P48730)
DDR1 = DDR1 (UniProt Q08345)
DYRK1B = DYRK1B (UniProt Q9Y463)
DYRK2 = DYRK2 (UniProt Q92630)
EGFR = EGFR (UniProt P00533)
EGFR_G719S = EGFR_G719S (UniProt P00533)
EGFR_G719S_T790M = EGFR_G719S_T790M (UniProt P00533)
EGFR_L718V = EGFR_L718V (UniProt P00533)
EGFR_L858R = EGFR_L858R (UniProt P00533)
EGFR_L861Q = EGFR_L861Q (UniProt P00533)
EGFR_T790M = EGFR_T790M (UniProt P00533)
EPHA2 = EPHA2 (UniProt P29317)
ERBB3 = ERBB3 (UniProt P21860)
[1] = biological target: ERBB4_R711C (clone: ERBB4_mut) (UniProt Q15303)

Measured: kinase-Nluc reporter destabilization hit call

O=C(CCCCCn1cc(Nc2ncc(Cl)c(Nc3ccc(Cl)cc3)n2)cn1)NO (2.5 µM)
inactive: CDK7 = 0 | CDK9 = 0 | CHEK2 = 0 | CSF1R 0 | CSK 0 | CSNK1A1 = 0 | CSNK1D 0 | DDR1 = 0 | DYRK1B 0 | DYRK2 = 0 | EGFR 0 | EGFR_G719S 0 | EGFR_G719S_T790M 0 | EGFR_L718V 0 | EGFR_L858R 0 | EGFR_L861Q 0 | EGFR_T790M 0 | EPHA2 = 0 | ERBB3 = 0 | [1] 0

O=C1NC(=O)/C(=C/c2ccc(-c3ccc(F)cc3O)o2)S1 (10 µM)
inactive: CDK7 = 0 | CDK9 = 0 | CHEK2 = 0 | CSF1R 0 | CSK 0 | CSNK1A1 = 0 | CSNK1D 0 | DDR1 = 0 | DYRK1B 0 | DYRK2 = 0 | EGFR 0 | EGFR_G719S 0 | EGFR_G719S_T790M 0 | EGFR_L718V 0 | EGFR_L858R 0 | EGFR_L861Q 0 | EGFR_T790M 0 | EPHA2 = 0 | ERBB3 = 0 | [1] 0

Cc1cc(Nc2cc(CN3CCOCC3)c3nc(C)c(Cc4ccc(Cl)cc4F)n3n2)n[nH]1 [Gandotinib] (2.5 µM)
inactive: CDK7 = 0 | CDK9 = 0 | CHEK2 = 0 | CSF1R 0 | CSK 0 | CSNK1A1 = 0 | CSNK1D 0 | DDR1 = 0 | DYRK1B 0 | DYRK2 = 0 | EGFR 0 | EGFR_G719S 0 | EGFR_G719S_T790M 0 | EGFR_L718V 0 | EGFR_L858R 0 | EGFR_L861Q 0 | EGFR_T790M 0 | EPHA2 = 0 | ERBB3 = 0 | [1] 0

CC(C)(C)C(=O)N1N=CC[C@H]1c1ccccc1 (10 µM)
inactive: CDK7 = 0 | CDK9 = 0 | CHEK2 = 0 | CSF1R 0 | CSK 0 | CSNK1A1 = 0 | CSNK1D 0 | DDR1 = 0 | DYRK1B 0 | DYRK2 = 0 | EGFR 0 | EGFR_G719S 0 | EGFR_G719S_T790M 0 | EGFR_L718V 0 | EGFR_L858R 0 | EGFR_L861Q 0 | EGFR_T790M 0 | EPHA2 = 0 | ERBB3 = 0 | [1] 0

O=c1nc(N2CCOCC2)oc2c(-c3cccc4c3sc3ccccc34)cccc12 (10 µM)
inactive: CDK7 = 0 | CDK9 = 0 | CHEK2 = 0 | CSF1R 0 | CSK 0 | CSNK1A1 = 0 | CSNK1D 0 | DDR1 = 0 | DYRK1B 0 | DYRK2 = 0 | EGFR 0 | EGFR_G719S 0 | EGFR_G719S_T790M 0 | EGFR_L718V 0 | EGFR_L858R 0 | EGFR_L861Q 0 | EGFR_T790M 0 | EPHA2 = 0 | ERBB3 = 0 | [1] 0

O=c1ccoc2cc(O)ccc12 [7-Hydroxy-4H-chromen-4-one] (10 µM)
inactive: CDK7 = 0 | CDK9 = 0 | CHEK2 = 0 | CSF1R 0 | CSK 0 | CSNK1A1 = 0 | CSNK1D 0 | DDR1 = 0 | DYRK1B 0 | DYRK2 = 0 | EGFR 0 | EGFR_G719S 0 | EGFR_G719S_T790M 0 | EGFR_L718V 0 | EGFR_L858R 0 | EGFR_L861Q 0 | EGFR_T790M 0 | EPHA2 = 0 | ERBB3 = 0 | [1] 0

CN(C)Cc1cccc(N=C(c2ccccc2)c2c(O)[nH]c3cc(C(N)=O)ccc23)c1 (10 µM)
inactive: CDK7 = 0 | CDK9 = 0 | CHEK2 = 0 | CSF1R 0 | CSK 0 | CSNK1A1 = 0 | CSNK1D 0 | DDR1 = 0 | DYRK1B 0 | DYRK2 = 0 | EGFR 0 | EGFR_G719S 0 | EGFR_G719S_T790M 0 | EGFR_L718V 0 | EGFR_L858R 0 | EGFR_L861Q 0 | EGFR_T790M 0 | EPHA2 = 0 | ERBB3 = 0 | [1] 0

CN1CC[C@H](c2c(O)cc(O)c3c(=O)cc(-c4ccc(C(F)(F)F)cc4Cl)oc23)[C@H]1CO [(2S,3R)-Voruciclib (hydrochloride)] (2.5 µM)
inactive: CDK7 = 0 | CDK9 = 0 | CHEK2 = 0 | CSF1R 0 | CSK 0 | CSNK1A1 = 0 | CSNK1D 0 | DDR1 = 0 | DYRK1B 0 | DYRK2 = 0 | EGFR 0 | EGFR_G719S 0 | EGFR_G719S_T790M 0 | EGFR_L718V 0 | EGFR_L858R 0 | EGFR_L861Q 0 | EGFR_T790M 0 | EPHA2 = 0 | ERBB3 = 0 | [1] 0

CC(C)C[C@H](NC(=O)[C@H](CCCCN)NC(=O)[C@H](CO)NC(=O)[C@@H](N)CC(C)C)C(N)=O [LSKL, Inhibitor of Thrombospondin (TSP-1) (TFA)] (10 µM)
inactive: CDK7 = 0 | CDK9 = 0 | CHEK2 = 0 | CSF1R 0 | CSK 0 | CSNK1A1 = 0 | CSNK1D 0 | DDR1 = 0 | DYRK1B 0 | DYRK2 = 0 | EGFR 0 | EGFR_G719S 0 | EGFR_G719S_T790M 0 | EGFR_L718V 0 | EGFR_L858R 0 | EGFR_L861Q 0 | EGFR_T790M 0 | EPHA2 = 0 | ERBB3 = 0 | [1] 0

COc1cc(N2CCC(N3CCN(C)CC3)CC2)ccc1Nc1nc2c(c(Nc3ccccc3S(=O)(=O)NC(C)C)n1)CCN2 [Conteltinib] (10 µM)
inactive: CDK7 = 0 | CDK9 = 0 | CHEK2 = 0 | CSF1R 0 | CSK 0 | CSNK1A1 = 0 | CSNK1D 0 | DDR1 = 0 | DYRK1B 0 | DYRK2 = 0 | EGFR 0 | EGFR_G719S 0 | EGFR_G719S_T790M 0 | EGFR_L718V 0 | EGFR_L858R 0 | EGFR_L861Q 0 | EGFR_T790M 0 | EPHA2 = 0 | ERBB3 = 0 | [1] 0

CCCCCCCC/C=C\CCCCCCCC(=O)NCC(=O)O [N-Oleoyl glycine] (10 µM)
inactive: CDK7 = 0 | CDK9 = 0 | CHEK2 = 0 | CSF1R 0 | CSK 0 | CSNK1A1 = 0 | CSNK1D 0 | DDR1 = 0 | DYRK1B 0 | DYRK2 = 0 | EGFR 0 | EGFR_G719S 0 | EGFR_G719S_T790M 0 | EGFR_L718V 0 | EGFR_L858R 0 | EGFR_L861Q 0 | EGFR_T790M 0 | EPHA2 = 0 | ERBB3 = 0 | [1] 0

O=Nc1c(-c2c(O)[nH]c3ccccc23)[nH]c2ccccc12 [Indirubin-3'-monoxime] (2.5 µM)
inactive: CDK7 = 0 | CDK9 = 0 | CHEK2 = 0 | CSF1R 0 | CSK 0 | CSNK1A1 = 0 | CSNK1D 0 | DDR1 = 0 | DYRK1B 0 | DYRK2 = 0 | EGFR 0 | EGFR_G719S 0 | EGFR_G719S_T790M 0 | EGFR_L718V 0 | EGFR_L858R 0 | EGFR_L861Q 0 | EGFR_T790M 0 | EPHA2 = 0 | ERBB3 = 0 | [1] 0

CN(C)c1ncnc2nc[nH]c12 [6-(Dimethylamino)purine] (10 µM)
inactive: CDK7 = 0 | CDK9 = 0 | CHEK2 = 0 | CSF1R 0 | CSK 0 | CSNK1A1 = 0 | CSNK1D 0 | DDR1 = 0 | DYRK1B 0 | DYRK2 = 0 | EGFR 0 | EGFR_G719S 0 | EGFR_G719S_T790M 0 | EGFR_L718V 0 | EGFR_L858R 0 | EGFR_L861Q 0 | EGFR_T790M 0 | EPHA2 = 0 | ERBB3 = 0 | [1] 0

O=C(O)c1ccc(N2N=C(Cc3ccccc3)C(=Cc3ccc(-c4ccccc4F)o3)C2=O)cc1 (10 µM)
inactive: CDK7 = 0 | CDK9 = 0 | CHEK2 = 0 | CSF1R 0 | CSK 0 | CSNK1A1 = 0 | CSNK1D 0 | DDR1 = 0 | DYRK1B 0 | DYRK2 = 0 | EGFR 0 | EGFR_G719S 0 | EGFR_G719S_T790M 0 | EGFR_L718V 0 | EGFR_L858R 0 | EGFR_L861Q 0 | EGFR_T790M 0 | EPHA2 = 0 | ERBB3 = 0 | [1] 0

Nc1cc(C(F)F)c(-c2nc(N3C4CCC3COC4)nc(N3C4CCC3COC4)n2)cn1 (2.5 µM)
inactive: CDK7 = 0 | CDK9 = 0 | CHEK2 = 0 | CSF1R 0 | CSK 0 | CSNK1A1 = 0 | CSNK1D 0 | DDR1 = 0 | DYRK1B 0 | DYRK2 = 0 | EGFR 0 | EGFR_G719S 0 | EGFR_G719S_T790M 0 | EGFR_L718V 0 | EGFR_L858R 0 | EGFR_L861Q 0 | EGFR_T790M 0 | EPHA2 = 0 | ERBB3 = 0 | [1] 0

CC(C)c1cc(/C=C(\C#N)C(N)=O)cc(C(C)C)c1O (10 µM)
inactive: CDK7 = 0 | CDK9 = 0 | CHEK2 = 0 | CSF1R 0 | CSK 0 | CSNK1A1 = 0 | CSNK1D 0 | DDR1 = 0 | DYRK1B 0 | DYRK2 = 0 | EGFR 0 | EGFR_G719S 0 | EGFR_G719S_T790M 0 | EGFR_L718V 0 | EGFR_L858R 0 | EGFR_L861Q 0 | EGFR_T790M 0 | EPHA2 = 0 | ERBB3 = 0 | [1] 0

CC1(N)CCN(c2cnc3c(-c4cccc(Cl)c4Cl)[nH]nc3n2)CC1 (2.5 µM)
inactive: CDK7 = 0 | CDK9 = 0 | CHEK2 = 0 | CSF1R 0 | CSK 0 | CSNK1A1 = 0 | CSNK1D 0 | DDR1 = 0 | DYRK1B 0 | DYRK2 = 0 | EGFR 0 | EGFR_G719S 0 | EGFR_G719S_T790M 0 | EGFR_L718V 0 | EGFR_L858R 0 | EGFR_L861Q 0 | EGFR_T790M 0 | EPHA2 = 0 | ERBB3 = 0 | [1] 0
